Assay results as given in article PMC9633835.
Results are given in words; binding and its absence hold for the method and conditions named. Binding seen in cells or lysates may run through a third protein. Some binding calls cover weakened binding; strength is not graded here.

Sequences of proteins named here, by UniProt entry; tags and fusion partners are left off.
UniProt P23771: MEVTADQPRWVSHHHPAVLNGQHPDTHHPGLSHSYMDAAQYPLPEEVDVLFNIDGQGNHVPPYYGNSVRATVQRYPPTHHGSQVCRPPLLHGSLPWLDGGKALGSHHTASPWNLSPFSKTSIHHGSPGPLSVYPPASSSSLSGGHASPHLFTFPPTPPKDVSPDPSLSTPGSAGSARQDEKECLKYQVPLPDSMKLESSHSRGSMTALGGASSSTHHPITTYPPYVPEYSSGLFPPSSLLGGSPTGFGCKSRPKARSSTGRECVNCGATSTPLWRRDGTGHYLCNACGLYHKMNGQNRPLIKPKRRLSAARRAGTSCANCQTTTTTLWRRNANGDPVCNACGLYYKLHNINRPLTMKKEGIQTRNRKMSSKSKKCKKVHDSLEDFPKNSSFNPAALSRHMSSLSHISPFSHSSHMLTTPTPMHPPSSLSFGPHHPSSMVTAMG
UniProt Q09472: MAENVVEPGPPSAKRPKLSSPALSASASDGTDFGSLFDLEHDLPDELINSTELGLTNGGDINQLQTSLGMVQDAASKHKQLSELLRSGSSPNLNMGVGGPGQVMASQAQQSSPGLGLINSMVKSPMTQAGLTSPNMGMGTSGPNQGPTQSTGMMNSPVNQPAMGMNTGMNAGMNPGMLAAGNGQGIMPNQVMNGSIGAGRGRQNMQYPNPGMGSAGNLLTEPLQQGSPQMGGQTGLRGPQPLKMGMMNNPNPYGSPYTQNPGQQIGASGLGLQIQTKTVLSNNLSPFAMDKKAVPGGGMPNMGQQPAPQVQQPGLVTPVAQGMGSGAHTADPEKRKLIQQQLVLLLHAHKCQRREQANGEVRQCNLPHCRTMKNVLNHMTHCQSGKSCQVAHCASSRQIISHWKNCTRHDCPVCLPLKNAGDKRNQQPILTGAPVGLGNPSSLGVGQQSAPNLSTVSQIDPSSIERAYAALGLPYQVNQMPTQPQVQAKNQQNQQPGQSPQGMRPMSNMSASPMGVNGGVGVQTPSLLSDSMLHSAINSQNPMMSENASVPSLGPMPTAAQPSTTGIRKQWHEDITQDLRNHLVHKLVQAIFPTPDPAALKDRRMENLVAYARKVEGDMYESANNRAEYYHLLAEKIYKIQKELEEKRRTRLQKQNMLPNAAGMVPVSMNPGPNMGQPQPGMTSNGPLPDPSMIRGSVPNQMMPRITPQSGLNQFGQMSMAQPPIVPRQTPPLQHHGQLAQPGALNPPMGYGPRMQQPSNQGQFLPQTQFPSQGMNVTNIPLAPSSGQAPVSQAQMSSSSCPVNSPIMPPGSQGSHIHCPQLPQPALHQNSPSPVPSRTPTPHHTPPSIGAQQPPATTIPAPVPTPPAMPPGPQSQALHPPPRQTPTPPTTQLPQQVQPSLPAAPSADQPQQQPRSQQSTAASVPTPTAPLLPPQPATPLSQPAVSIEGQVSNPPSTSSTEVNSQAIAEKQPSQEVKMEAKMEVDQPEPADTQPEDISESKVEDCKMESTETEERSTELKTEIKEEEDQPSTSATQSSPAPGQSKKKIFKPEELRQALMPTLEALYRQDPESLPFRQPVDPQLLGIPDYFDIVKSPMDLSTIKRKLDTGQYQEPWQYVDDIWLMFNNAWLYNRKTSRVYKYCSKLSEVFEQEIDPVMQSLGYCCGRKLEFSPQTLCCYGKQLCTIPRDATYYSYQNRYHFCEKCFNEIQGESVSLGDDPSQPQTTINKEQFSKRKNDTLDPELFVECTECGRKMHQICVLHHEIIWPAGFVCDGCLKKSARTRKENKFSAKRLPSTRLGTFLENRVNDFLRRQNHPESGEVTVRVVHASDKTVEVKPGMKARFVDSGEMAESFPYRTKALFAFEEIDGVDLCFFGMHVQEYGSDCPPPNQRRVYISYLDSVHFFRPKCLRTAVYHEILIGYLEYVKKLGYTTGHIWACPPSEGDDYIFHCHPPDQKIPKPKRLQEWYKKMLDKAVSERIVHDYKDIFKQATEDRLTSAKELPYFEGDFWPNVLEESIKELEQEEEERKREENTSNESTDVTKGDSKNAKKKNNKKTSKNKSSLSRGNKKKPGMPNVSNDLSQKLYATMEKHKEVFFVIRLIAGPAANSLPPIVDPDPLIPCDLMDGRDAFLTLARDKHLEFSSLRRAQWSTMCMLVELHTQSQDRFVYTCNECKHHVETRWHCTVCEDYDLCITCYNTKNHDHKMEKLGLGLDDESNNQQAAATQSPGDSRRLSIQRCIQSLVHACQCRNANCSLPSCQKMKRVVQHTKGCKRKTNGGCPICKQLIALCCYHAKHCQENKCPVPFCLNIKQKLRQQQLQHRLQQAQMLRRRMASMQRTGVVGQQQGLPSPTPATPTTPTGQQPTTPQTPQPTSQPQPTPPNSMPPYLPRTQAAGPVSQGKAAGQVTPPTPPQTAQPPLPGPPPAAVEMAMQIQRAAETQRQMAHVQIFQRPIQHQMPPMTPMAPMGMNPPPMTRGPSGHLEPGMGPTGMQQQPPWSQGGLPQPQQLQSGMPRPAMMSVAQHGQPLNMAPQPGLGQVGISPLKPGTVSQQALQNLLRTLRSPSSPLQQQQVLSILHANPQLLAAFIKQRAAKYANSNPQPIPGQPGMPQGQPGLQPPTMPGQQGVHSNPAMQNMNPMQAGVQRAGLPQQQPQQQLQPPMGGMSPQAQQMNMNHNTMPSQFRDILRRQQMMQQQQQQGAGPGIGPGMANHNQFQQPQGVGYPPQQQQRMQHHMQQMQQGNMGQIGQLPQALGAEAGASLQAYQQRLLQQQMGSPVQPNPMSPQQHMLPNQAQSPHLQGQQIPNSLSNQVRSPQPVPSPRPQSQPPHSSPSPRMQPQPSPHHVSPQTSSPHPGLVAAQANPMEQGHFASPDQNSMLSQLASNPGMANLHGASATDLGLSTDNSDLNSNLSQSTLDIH

What was measured:
GFP-tagged GATA-3 = GFP-tagged GATA-3 (UniProt P23771); test: co-IP; GFP-tagged GATA-3 and Flag-tagged P300 expressed in HEK293T cells; anti-GFP (or isotype control) immunoprecipitation, immunoblot for Flag and GFP
[1] = molecular target: endogenous GATA-3 (human (endogenous in H9)) (UniProt P23771); test: co-IP; endogenous GATA-3 and P300 co-immunoprecipitated in H9 cells (other cell lines in Fig. S4B); the text also says that A-485 with MG132 did not disrupt p300/GATA-3 binding (Fig. S5D, cells not given)

| binding (GFP-tagged GATA-3) | binding [1] | Substance |
| --- | --- | --- |
| binds | – | Flag-tagged p300 (from UniProt Q09472 1-2414) |
| – | binds | endogenous p300 (from UniProt Q09472 1-2414) |
